Reference: the supplement of paper PMC8728848
The other results are listed elsewhere or left out.

Legend:
Assay in all cases: glycan array binding signal (z-score within array); higher = stronger binding
Conditions in all cases: glycan notation: IUPAC condensed, linker removed
[1] = molecular target: Neu5Ac(a2-6)Gal(b1-4)GlcNAc(b1-2)Man(a1-3)[GlcNAc(b1-4)][Neu5Ac(a2-6)Gal(b1-4)GlcNAc(b1-2)Man(a1-6)]Man(b1-4)GlcNAc(b1-4)GlcNAc
Procedure, shortened: (§1)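 Arrays were curated from the Consortium for Functional Glycomics database, 3228 in total, and kept only where the protein sequence was available. Binding is expressed as a within-array Z-score. This score was averaged across arrays of the same protein sequence at different concentrations or buffers and across linkers, and negative values can be read as non-binding.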

[2] = molecular target: Neu5Ac(a2-6)Gal(b1-4)GlcNAc(b1-2)Man(a1-3)[Man(a1-6)]Man(b1-4)GlcNAc(b1-4)GlcNAc
Procedure, shortened: as §1

[3] = molecular target: Neu5Ac(a2-6)Gal(b1-4)GlcNAc(b1-2)Man(a1-3)[Neu5Ac(a2-3)Gal(b1-4)GlcNAc(b1-2)Man(a1-6)]Man(b1-4)GlcNAc(b1-4)GlcNAc
Procedure, shortened: as §1

[4] = molecular target: Neu5Ac(a2-6)Gal(b1-4)GlcNAc(b1-2)Man(a1-3)[Neu5Ac(a2-6)Gal(b1-4)GlcNAc(b1-2)Man(a1-6)]Man(b1-4)GlcNAc(b1-4)GlcNAc
Procedure, shortened: as §1

[5] = molecular target: Neu5Ac(a2-6)Gal(b1-4)GlcNAc(b1-2)Man(a1-3)[Neu5Ac(a2-6)Gal(b1-4)GlcNAc(b1-2)Man(a1-6)]Man(b1-4)GlcNAc(b1-4)[Fuc(a1-6)]GlcNAc
Procedure, shortened: as §1

[6] = molecular target: Neu5Ac(a2-6)Gal(b1-4)GlcNAc(b1-2)Man(a1-6)Man(b1-4)GlcNAc(b1-4)GlcNAc
Procedure, shortened: as §1

[7] = molecular target: Neu5Ac(a2-6)Gal(b1-4)GlcNAc(b1-2)Man(a1-6)[Gal(b1-4)GlcNAc(b1-2)Man(a1-3)]Man(b1-4)GlcNAc(b1-4)GlcNAc
Procedure, shortened: as §1

[8] = molecular target: Neu5Ac(a2-6)Gal(b1-4)GlcNAc(b1-2)Man(a1-6)[GlcNAc(b1-2)Man(a1-3)]Man(b1-4)GlcNAc(b1-4)GlcNAc
Procedure, shortened: as §1

[9] = molecular target: Neu5Ac(a2-6)Gal(b1-4)GlcNAc(b1-2)Man(a1-6)[Man(a1-3)]Man(b1-4)GlcNAc(b1-4)GlcNAc
Procedure, shortened: as §1

[10] = molecular target: Neu5Ac(a2-6)Gal(b1-4)GlcNAc(b1-2)[Neu5Ac(a2-6)Gal(b1-4)GlcNAc(b1-4)]Man(a1-3)[GlcNAc(b1-4)][Neu5Ac(a2-6)Gal(b1-4)GlcNAc(b1-2)[Neu5Ac(a2-6)Gal(b1-4)GlcNAc(b1-6)]Man(a1-6)]Man(b1-4)GlcNAc(b1-4)GlcNAc
Procedure, shortened: as §1

[11] = molecular target: Neu5Ac(a2-6)Gal(b1-4)GlcNAc(b1-2)[Neu5Ac(a2-6)Gal(b1-4)GlcNAc(b1-4)]Man(a1-3)[GlcNAc(b1-4)][Neu5Ac(a2-6)Gal(b1-4)GlcNAc(b1-4)Man(a1-6)]Man(b1-4)GlcNAc(b1-4)GlcNAc
Procedure, shortened: as §1

[12] = molecular target: Neu5Ac(a2-6)Gal(b1-4)GlcNAc(b1-2)[Neu5Ac(a2-6)Gal(b1-4)GlcNAc(b1-6)]Man(a1-6)[Neu5Ac(a2-6)Gal(b1-4)GlcNAc(b1-2)Man(a1-3)][GlcNAc(b1-4)]Man(b1-4)GlcNAc(b1-4)GlcNAc
Procedure, shortened: as §1

[13] = molecular target: Neu5Ac(a2-6)Gal(b1-4)GlcNAc(b1-3)Gal(b1-3)GlcNAc
Procedure, shortened: as §1

[14] = molecular target: Neu5Ac(a2-6)Gal(b1-4)GlcNAc(b1-3)Gal(b1-4)GlcNAc
Procedure, shortened: as §1

[15] = molecular target: Neu5Ac(a2-6)Gal(b1-4)GlcNAc(b1-3)Gal(b1-4)GlcNAc(b1-2)Man(a1-3)[Neu5Ac(a2-6)Gal(b1-4)GlcNAc(b1-3)Gal(b1-4)GlcNAc(b1-2)Man(a1-6)]GalNAc
Procedure, shortened: as §1

[16] = molecular target: Neu5Ac(a2-6)Gal(b1-4)GlcNAc(b1-3)Gal(b1-4)GlcNAc(b1-3)Gal(b1-4)GlcNAc
Procedure, shortened: as §1

[17] = molecular target: Neu5Ac(a2-6)Gal(b1-4)GlcNAc(b1-3)Gal(b1-4)GlcNAc(b1-3)Gal(b1-4)GlcNAc(b1-2)Man(a1-3)[Neu5Ac(a2-6)Gal(b1-4)GlcNAc(b1-3)Gal(b1-4)GlcNAc(b1-3)Gal(b1-4)GlcNAc(b1-2)Man(a1-6)]GalNAc
Procedure, shortened: as §1

[18] = molecular target: Neu5Ac(a2-6)Gal(b1-4)GlcNAc(b1-3)Gal(b1-4)GlcNAc(b1-3)GalNAc
Procedure, shortened: as §1

[19] = molecular target: Neu5Ac(a2-6)Gal(b1-4)GlcNAc(b1-3)Gal(b1-4)GlcNAc(b1-3)[Neu5Ac(a2-6)Gal(b1-4)GlcNAc(b1-3)Gal(b1-4)GlcNAc(b1-6)]GalNAc
Procedure, shortened: as §1

[20] = molecular target: Neu5Ac(a2-6)Gal(b1-4)GlcNAc(b1-3)Gal(b1-4)GlcNAc(b1-6)[Gal(b1-3)]GalNAc
Procedure, shortened: as §1

[21] = molecular target: Neu5Ac(a2-6)Gal(b1-4)GlcNAc(b1-3)Gal(b1-4)[Fuc(a1-3)]GlcNAc(b1-3)Gal(b1-4)[Fuc(a1-3)]GlcNAc
Procedure, shortened: as §1

[22] = molecular target: Neu5Ac(a2-6)Gal(b1-4)GlcNAc(b1-3)GalNAc
Procedure, shortened: as §1

[23] = molecular target: Neu5Ac(a2-6)Gal(b1-4)GlcNAc(b1-3)[Neu5Ac(a2-6)Gal(b1-4)GlcNAc(b1-6)]GalNAc
Procedure, shortened: as §1

[24] = molecular target: Neu5Ac(a2-6)Gal(b1-4)GlcNAc(b1-6)GalNAc
Procedure, shortened: as §1

[25] = molecular target: Neu5Ac(a2-6)Gal(b1-4)GlcNAc(b1-6)[Gal(b1-3)GlcNAc(b1-3)]Gal(b1-4)Glc
Procedure, shortened: as §1

[26] = molecular target: Neu5Ac(a2-6)Gal(b1-4)GlcNAc(b1-6)[Gal(b1-3)]GalNAc
Procedure, shortened: as §1

[27] = molecular target: Neu5Ac(a2-6)Gal(b1-4)GlcNAc6S
Procedure, shortened: as §1

Neu5Ac(a2-6)GalNAc = molecular target: Neu5Ac(a2-6)GalNAc
Procedure, shortened: as §1

[28] = molecular target: Neu5Ac(a2-6)GalNAc(b1-4)GlcNAc
Procedure, shortened: as §1

[29] = molecular target: Neu5Ac(a2-6)GalNAc(b1-4)GlcNAc6S
Procedure, shortened: as §1

[30] = molecular target: Neu5Ac(a2-6)GlcNAc(b1-4)GlcNAc
Procedure, shortened: as §1

B1: Epa11 (Candida glabrata) (protein)
chain: MGSSHHHHHHSSGLVPRGSHMASSNAPNYPVGCSPSVGTQLTPGLSLEVYAYPMDGNNGYCWNATYKDPEFPRSGYLKNKLLGKADGVVGPLNFLAKNKDCSPKVDTLPAGFNFPQPITVTNFTMVLFGYLAPKQSGKYTFKLLADDLLLLNLGATNAFDCCNREATKNNLGEFLAYNLWPNQDKNVTVYLEKGVYYPLRLFFNNRDGGSQLDFSYYFNDSPAPLTDFSGMFFSVPDGAECPARI
[1]
  glycan array binding signal (z-score): -0.77
[2]
  glycan array binding signal (z-score): 0.506
[3]
  glycan array binding signal (z-score): 0.456
[4]
  glycan array binding signal (z-score): -0.433
[5]
  glycan array binding signal (z-score): 0.607
[6]
  glycan array binding signal (z-score): 0.488
[7]
  glycan array binding signal (z-score): -0.813
[8]
  glycan array binding signal (z-score): -0.098
[9]
  glycan array binding signal (z-score): 0.212
[10]
  glycan array binding signal (z-score): 0.252
[11]
  glycan array binding signal (z-score): -0.193
[12]
  glycan array binding signal (z-score): -1.11
[13]
  glycan array binding signal (z-score): -0.149
[14]
  glycan array binding signal (z-score): -0.608
[15]
  glycan array binding signal (z-score): 0.871
[16]
  glycan array binding signal (z-score): -0.284
[17]
  glycan array binding signal (z-score): 1.56
[18]
  glycan array binding signal (z-score): 0.59
[19]
  glycan array binding signal (z-score): 1.16
[20]
  glycan array binding signal (z-score): 0.182
[21]
  glycan array binding signal (z-score): -0.397
[22]
  glycan array binding signal (z-score): 0.37
[23]
  glycan array binding signal (z-score): -0.465
[24]
  glycan array binding signal (z-score): 0.037
[25]
  glycan array binding signal (z-score): -0.348
[26]
  glycan array binding signal (z-score): -0.384
[27]
  glycan array binding signal (z-score): -0.281
Neu5Ac(a2-6)GalNAc
  glycan array binding signal (z-score): -0.369
[28]
  glycan array binding signal (z-score): -0.616
[29]
  glycan array binding signal (z-score): -0.391
[30]
  glycan array binding signal (z-score): 0.216
